Measured values taken from patent US20090203661A1, “Betulinic acid, derivatives and analogs thereof and uses therefor” (priority 2006, published 2009).
At least one structure is not confirmed: it was looked up by name or label, or the drawing left a doubt.

Experiments:
HT-29 cells = test: miR-27a and ZBTB10 mRNA expression in HT-29 cells; assay type: cell-based, human
p21 promoter = test: Chromatin immunoprecipitation (ChIP) assay, p21 promoter, Panc-28 cells; assay type: cell-based, human; conditions: 5 μM, 1 or 2 hr
Procedure: Panc-28 cells were treated with the different compounds as indicated for 24 hr and whole cell lysates were obtained and analyzed by immunoblots. […] Cells were transfected with the various constructs, treated with DMSO, BA, CN-BA, CN-BA-Me alone or in combination with T007, and luciferase activity determined. Results of all transactivation studies in this Figure are presented as means±SE for at least three separate determinations for each treatment group. Significant (p<0.05) induction compared to solvent (DMSO) control (*) and inhibition by cotreatment with T007 (**) are indicated. FIGS. 10D-10F show chromatin immunoprecipitation assays. Primers designed for the proximal region of the p21 promoter (FIG. 10D) were used for a ChIP assay in Panc-28 cells (FIG. 10E) treated with DMSO, 5 μM BA, 5 μM CN-BA, and 5 μM CN-BA-Me for 1 or 2 hr. Analysis of interactions of Sp1 and PPARγ with the p21 promoter were carried out in the ChIP assay as described. The ChIP assay was also used to examine binding of TFIIB to the GAPDH promoter (positive control) (FIG. 10F) and to exon 1 of CNAP1 (negative control).
The ligand-dependent recruitment of PPARγ to the p21 promoter by CN-BA and CN-BA-Me was examined using a ChIP assay of Panc-28 cells treated with the betulinic acid, CN-BA and CN-BA-Me for 1 or 2 hr. […]

RKO colon cancer cells = test: Western blot of proapoptotic responses and Sp proteins in RKO cells; assay type: cell-based
Procedure: RKO cells were […] with BA or CN-BA for 24 hr and whole cell lysates were examined by Western blot analysis.
RKO colon cancer cells were treated with BA/CN-BA for 24 hr (FIG. 15A) or 48 hr (FIG. 15B) and Miapaca-2 pancreatic cancer cells were treated with BA/CN-BA for 24 hr (FIG. 15C). Whole cell lysates were examined by Western blot analysis.

3T3-L1 adipocytes = test: 3T3-L1 differentiation and Oil Red O staining; assay type: cell-based; conditions: 0.25 μM
Procedure: 3T3-L1 preadipocytes were cultured on poly-lysine-coated coverslips with DMEM and 10% FBS at 5% CO2 in 24-well plates. At 2 days post-confluence, cells were incubated with fresh media supplemented with 3-isobutyl-1-methylxanthine (0.5 mM), dexamethasone (1 μM), insulin (1.7 μM), and indicated compounds (0.25 μM). After 48 hr, cells were changed to fresh media and treated with DMSO or indicated compounds for 5 days. Cells without any treatment for the entire 7 days were used as control. The cells were then fixed with 10% formalin. Fixed cells were washed with 60% isopropanol and stained with filtered 60% Oil Red O in deionized water. After staining, cells were washed with water and photographed.

SW480 cells = test: Caveolin-1 expression (Western blot) in SW480 cells; assay type: cell-based, human; conditions: SW480, 72 hr
Procedure: (§1) SW480, HT-29, HCT-15 and Panc-28 (3×10^5) colon cancer cells were seeded in 6-well tissue culture plates in DMEM/Ham's F-12 medium containing 2.5% charcoal-stripped FBS. Protein is extracted from the cells treated either with vehicle or indicated compounds suspended for 24 hr except for caveolin-1 protein which was done for 72 hr. Samples were extracted in high salt buffer [50 mmol/L HEPES, 500 mmol/L NaCl, 1.5 mmol/L MgCl2, 1 mmol/L EGTA, 10% glycerol, and 1% Triton X-100 (pH 7.5), and 5 μL/mL protease inhibitor cocktail (Sigma-Aldrich)]. Samples were incubated at 100° C. for 2 min, separated on either 10% or 12% SDS-PAGE gels and then transferred to polyvinylidene difluoride membrane (PVDF; Bio-Rad, Hercules, Calif.). The PVDF membrane was blocked in 5% TBST-Blotto (10 mM Tris HCl, 150 mM NaCl, pH 8.0, 0.05% Triton X-100, and 5% nonfat dry milk) for about 30 min and was then incubated in fresh 5% TBST-Blotto with 1:1000 for caveolin-1 (Santa Cruz Biotechnology, Santa Cruz, Calif.), 1:1000 for p21 (BD Pharmingen, Frank lakes, NJ) and 1:10000 for β-actin (Sigma) primary antibody overnight with gentle shaking at 4° C. After washing with TBST for 10 min, the membrane was incubated with respective secondary antibody (1:5000) (Santa cruz, Calif.) in 5% TBST-Blotto for 3 hr. […]

LNCaP cells = test: Western blot analysis of protein expression in LNCaP cells; assay type: cell-based, Human
Procedure: Human carcinoma cell lines LNCaP (prostate) and SK-MEL2 (melanoma) were obtained from American Type Culture Collection (Manassas, Va.). Cell lines were maintained in RPMI 1640 (Sigma) supplemented with 0.22% sodium bicarbonate, 0.011% sodium pyruvate, 0.45% glucose, 0.24% HEPES, 10% FBS, and 10 mL/L of 100× Antibiotic Antimycotic solution (Sigma). Cells were maintained at 37° C. in the presence of 5% CO2.
An equal amount of cell lysate (60 μg/well) was separated by 7.5% to 12% SDS-PAGE, which was followed by immunoblotting onto polyvinylidene difluoride (Bio-Rad, Hercules, Calif.). After blocking in TBST-Blotto (10 mmol/L Tris-HCl, 150 mmol/L NaCl (pH 8.0), 0.05% Triton X-100, 5% nonfat dry milk) for 30 min, the membranes were incubated with primary antibodies overnight at 4° C. and then with horseradish peroxidase-conjugated secondary antibody for 2 hr at room temperature. Proteins were visualized using the chemiluminescence substrate (Perkin-Elmer Life Sciences) for 1 min and exposed to Kodak X-OMAT AR autoradiography film (Eastman Kodak, Rochester, N.Y.).

Panc-28 cells = test: Western blot of p21, p27, cyclin D1 in Panc-28 cells; assay type: cell-based, human; conditions: Panc-28, 24 hr
Procedure: as §1

Miapaca-2 cells = test: miR-27a and ZBTB10 mRNA expression in Miapaca-2 cells; assay type: cell-based

SMILES: C=C(C)[C@@H]1CC[C@]2(C(=O)O)CC[C@]3(C)[C@H](CC[C@@H]4[C@@]5(C)CC[C@H](O)C(C)(C)[C@@H]5CC[C@]43C)[C@@H]12 [betulinic acid, Betulinic acid]
- ZBTB10 expression (HT-29 cells): increased expression of ZBTB10
- miR-27a expression (HT-29 cells): decreased expression of miR-27a
- recruitment of PPARγ to proximal GC-rich region of p21 promoter (p21 promoter): did not induce PPARγ interactions
- Sp protein expression (RKO colon cancer cells; 24 and 48 hr): decrease Sp protein expression
- ATF3, JNK phosphorylation, CHOP and DR5 (RKO colon cancer cells; 24 hours): activate
- proapoptotic responses (RKO colon cancer cells; 24 hours): activate proapoptotic responses
- Oil Red O staining (fat droplets) (3T3-L1 adipocytes): does not induce this response
- caveolin-1 induction (SW480 cells): did not induce caveolin-1 expression
- PARP cleavage (LNCaP cells): induced caspase-dependent PARP cleavage
- expression of angiogenic protein VEGF (LNCaP cells): decreased expression
- expression of antiapoptotic protein survivin (LNCaP cells): decreased expression
- AR expression (LNCaP cells; 5 μM): decreased
- AR expression (LNCaP cells; 10 μM): almost completely absent
- effect of cycloheximide on compound's effect on Sp protein levels (LNCaP cells; 10-20 μM plus 10 μg/ml cycloheximide): did not modulate
- p21 and p27 expression (LNCaP cells; 24 hr, data not shown): not affected
- effect of MG132 on compound-induced downregulation of Sp1, Sp3, Sp4 and VEGF (LNCaP cells; cotreatment with proteasome inhibitor MG132): reversed
- p21 protein expression (Panc-28 cells): induction of p21
- ZBTB10 expression (Miapaca-2 cells): increased expression of ZBTB10
- miR-27a expression (Miapaca-2 cells): decreased expression of miR-27a
